Source: patent US8227423B2 (priority 2004, dated 2012)
At least one peptide structure holds a part that was inferred or is arguable (an end, a ring closure or a residue). Ends that are not written are not given here.

Experiments:
E. coli DH5α = format: cell-based
B. subtilis spores = format: cell-based, Bacillus subtilis
[1] = system: Bacillus anthracis Sterne; format: cell-based
Bacillus subtilis = format: cell-based
[2] = system: B. anthracis Sterne spores; format: cell-based, Bacillus anthracis
E. coli DC2 = format: cell-based

With “TRKKLFHIFHATIRSR [PAD-1.17, TRKKLFHIFHATIRSR]” the “effect on E. coli DH5α in time kill assay (CFU)” value (E. coli DH5α) was “bacteriostatic effect”, the “emergence of viable cells from spores (CFU)” value (B. subtilis spores) was “prevented viable cells from emerging” and the “killing of inoculum in time kill assay (CFU)” value [1] was “killed”. For the same sequence, the “visible growth in tubes” value [1] was “no visible growth”, the “killing of inoculum in time kill assay (CFU)” value (Bacillus subtilis) was “killed” and the “emergence of viable cells from spores (CFU)” value [2] was “prevented viable cells from emerging”. For the same sequence, the “effect on E. coli DC2 in time kill assay (CFU)” value (E. coli DC2) was “bacteriocidal”.
